According to PMC3119658:
These are yes or no findings as the source states them, for the method shown. Binding seen in cells or lysates may run through a third protein. Some entries that bind do so weakly or less than the wild type.

By UniProt entry, the sequences of proteins in these tests, tags left out. Residues count along the entry.
UniProt P25445, residues 26-335: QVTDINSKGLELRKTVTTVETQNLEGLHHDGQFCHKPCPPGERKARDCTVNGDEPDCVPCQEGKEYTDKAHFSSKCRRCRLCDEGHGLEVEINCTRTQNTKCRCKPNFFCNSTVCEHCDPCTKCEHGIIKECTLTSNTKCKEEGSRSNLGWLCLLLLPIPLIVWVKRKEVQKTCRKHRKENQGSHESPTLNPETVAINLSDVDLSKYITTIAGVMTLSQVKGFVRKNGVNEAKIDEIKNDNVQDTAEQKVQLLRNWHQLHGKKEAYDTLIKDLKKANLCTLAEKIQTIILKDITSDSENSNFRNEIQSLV
UniProt P07947: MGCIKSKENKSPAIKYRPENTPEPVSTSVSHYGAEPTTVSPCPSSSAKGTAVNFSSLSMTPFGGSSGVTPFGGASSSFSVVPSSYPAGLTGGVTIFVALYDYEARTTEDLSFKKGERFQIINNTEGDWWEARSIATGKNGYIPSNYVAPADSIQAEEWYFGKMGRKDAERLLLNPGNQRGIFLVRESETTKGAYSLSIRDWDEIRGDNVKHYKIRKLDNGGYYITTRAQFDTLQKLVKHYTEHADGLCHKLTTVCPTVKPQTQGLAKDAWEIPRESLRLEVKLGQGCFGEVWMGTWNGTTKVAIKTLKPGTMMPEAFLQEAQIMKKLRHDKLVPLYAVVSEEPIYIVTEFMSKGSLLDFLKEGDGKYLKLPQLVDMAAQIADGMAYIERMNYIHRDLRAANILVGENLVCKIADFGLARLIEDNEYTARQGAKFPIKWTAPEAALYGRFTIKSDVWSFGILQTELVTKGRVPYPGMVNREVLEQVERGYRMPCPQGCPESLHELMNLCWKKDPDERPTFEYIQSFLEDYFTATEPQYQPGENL

Molecular target: CD95 (human (endogenous in H9 and PBLs)) (UniProt P25445)
Test: co-IP; H9 T-cells and activated PBLs incubated with 100 ng/ml cl-CD95L (15 min, 4°C or 37°C), lysed, 1 µg APO1-3 added to the lysate, CD95 immunoprecipitated with protein A-sepharose beads; immunoblots

binding: binds
Substance: tyrosine kinase c-yes (from UniProt P07947 1-543) (enzyme)
